System: S. aureus
Experiment: MIC/MBC of native and heated Cipro/Oflox (heat stability)
Assay type: cell-based
Conditions: Staphylococcus aureus, 10^6 S. aureus/ml, TSB, n=6
Description: An inoculum of S. aureus was diluted to obtain a bacterial concentration of 10^6 S. aureus/ml. […] V. Mosby, St. Louis, 1986]. Antibiotic concentrations in the assay were […].

MIC (antibiotic heated to 135° C. for 1 hour (dye bath conditions), 24 hours): 2.3 µM | MIC (native antibiotic, turbidity after 24 hours): 2.3 µM
SMILES: O=C(O)c1cn(C2CC2)c2cc(N3CCNCC3)c(F)cc2c1=O [Cipro, Ciprofloxacin]
